{
  "source": "PubChem BioAssay AID504444",
  "about": "(National Center for Advancing Translational Sciences (NCATS), 2011)",
  "note": "In all, about 360,000 compounds went through this assay and about 7,500 (2.1%) were called active. The shares of active, inactive and inconclusive entries below differ from those in the screen. The call rests on the fitted dose curve; in most records, active means well fitted inhibition curve with a large enough effect; inconclusive means small, poorly fitted or top-dose-only effect, or effect the other way; inactive means flat fitted curve, though single readings scatter. Where the call is inconclusive, the potency comes from a doubtful curve fit. On the % scale 0 is the no-effect control and ±100 the full control effect; potency means the concentration at half of the fitted maximal effect.",
  "data": [
    {"assay": "Nrf2 qHTS screen for inhibitors; further: nearly all actives have a fitted effect of over 60% in size", "settings": "A549 ARE-Fluc reporter, luciferase luminescence, 18-24 h; activity change, negative = inhibition: at 46 µM (top of the series)", "outline": "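In this cell-based qHTS, ARE-driven firefly luciferase in A549 cells reports Nrf2 activity; the luminescent signal after BugLite lysis is the measured value, with a prior CellTiter-Fluor read for cell health.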", "values": [
      {"smiles": "NC(=O)c1cccnc1Oc1ccc(Cl)cc1Cl", "Potency": "inconclusive: 25.9 µM [falling, single point]"},
      {"smiles": "CCOC(=O)c1ccc(NCc2ccc3c(c2)OCO3)cc1", "activity change, negative = inhibition": "inactive: -9.81%"},
      {"smiles": "CC1CCCCN1S(=O)(=O)c1ccc(C(=O)Nc2nnc(-c3ccccc3Cl)o2)cc1", "note": "(centres undefined)", "Potency": "active: 5.17 µM"},
      {"smiles": "CCOC(=O)C(C)(C)Sc1nc2c(cnn2-c2ccc(Cl)cc2)c(=O)[nH]1", "Potency": "inconclusive: 32.6 µM [falling, single point]"},
      {"smiles": "COc1ccc(C(=O)Nc2ccc(F)cc2F)cc1", "Potency": "inconclusive: 3.66 µM [activator, single point]"},
      {"smiles": "CC(=O)c1ccc(NC(=O)CCc2nnc3ccc(N4CCC5(CC4)OCCO5)nn23)cc1", "Potency": "inconclusive: 9.2 µM [activator, partial curve]"},
      {"smiles": "COc1ccc(S(=O)(=O)N(C)C)cc1NCC(=O)Nc1ccc(Br)c(C)c1", "Potency": "inconclusive: 29.1 µM [falling, single point]"},
      {"smiles": "CCOC(=O)C(=CNc1ccc2c(c1)CCN2C(C)=O)C(=O)OCC", "Potency": "inconclusive: 6.51 µM [falling, partial curve, poor fit]"},
      {"smiles": "S=C(Nc1cccnc1)N1CCN(c2ccccc2Cl)CC1", "Potency": "inconclusive: 20.6 µM [falling, single point]"},
      {"smiles": "CN(O)C(=S)c1ccccc1", "Potency": "inconclusive: 29.1 µM [falling, single point]"},
      {"smiles": "CCC(=O)n1nc(-c2ccccc2)nc1NCc1ccccc1", "activity change, negative = inhibition": "inactive: 7.17%"},
      {"smiles": "Cc1[nH]n(-c2ccccc2)c(=O)c1N=Nc1ccc(F)cc1", "Potency": "inconclusive: 4.61 µM [activator, partial curve, poor fit]"},
      {"smiles": "c1ccc(-c2nnc(N3CCCC3)nc2-c2ccccc2)cc1", "Potency": "inconclusive: 4.11 µM [falling, partial curve, poor fit]"},
      {"smiles": "COc1ccc(C(=O)NCCCSc2ccccc2)cc1F", "Potency": "inconclusive: 29.1 µM [falling, single point]"},
      {"smiles": "Cc1ccc(S(=O)(=O)c2c(C)cc(C)nc2Oc2cccc(C(F)(F)F)c2)cc1", "Potency": "inconclusive: 29.1 µM [falling, single point]"},
      {"smiles": "Cc1nc2c(C)c(C)c(C)c(C)c2nc1C", "activity change, negative = inhibition": "inactive: 10.1%"},
      {"smiles": "O=C(CNc1ccccc1)N/N=C/c1ccc([N+](=O)[O-])cc1", "activity change, negative = inhibition": "inactive: -6.44%"},
      {"smiles": "CCCS(=O)(=O)c1cscc1NC(=O)c1c(-c2c(F)cccc2Cl)noc1C", "Potency": "inconclusive: 3.66 µM [falling, partial curve, poor fit]"},
      {"smiles": "O=C(c1ccccc1)c1ccc(N2CCOCC2)cc1", "Potency": "inconclusive: 3.66 µM [activator, partial curve]"},
      {"smiles": "COc1ccc(-c2cc3ncccc3cn2)cc1", "Potency": "inconclusive: 0.461 µM [activator, full curve, poor fit]"},
      {"smiles": "Cc1nc(NC(C)c2ccccc2)c2oc3ccccc3c2n1", "note": "(centres undefined)", "Potency": "active: 13 µM"},
      {"smiles": "Cc1ccccc1C(=O)NC(=S)NCC(=O)c1ccccc1", "activity change, negative = inhibition": "inactive: 1.25%"},
      {"smiles": "Cc1cccc(C(=O)NC(=S)Nc2cccc3nc(C)ccc23)c1", "Potency": "inconclusive: 25.9 µM [falling, single point]"},
      {"smiles": "Cc1c(Cl)cccc1NC(=O)Cn1nnc(-c2nc(-c3ccccc3)no2)c1N", "Potency": "inconclusive: 25.9 µM [activator, single point]"},
      {"smiles": "COc1ccc(C(=O)NC(=S)Nc2ccccc2N2CCCCC2)cc1[N+](=O)[O-]", "activity change, negative = inhibition": "inactive: 0.439%"},
      {"smiles": "CN(C)CCCNC(=O)c1ccc(Oc2ccccc2)cc1", "activity change, negative = inhibition": "inactive: 8.83%"},
      {"smiles": "Nc1ncc(Br)cc1S(=O)(=O)NCCC(=O)N1CCN(c2ncccn2)CC1", "Potency": "active: 18.4 µM"},
      {"smiles": "COc1ccc(C(=O)CC(SCC(NC(C)=O)C(=O)O)c2ccc(Cl)cc2)cc1OC", "note": "(centres undefined)", "Potency": "inconclusive: 13 µM [falling, partial curve, poor fit]"},
      {"smiles": "COc1ccc(CNc2ncnc3c2[nH]c2cc(OC)c(OC)cc23)cc1", "activity change, negative = inhibition": "inactive: -16.3%"},
      {"smiles": "O=C(Cn1cc2c(n1)CCCC2)NCCCN1CCN(c2ccccc2F)CC1", "activity change, negative = inhibition": "inactive: 16.6%"},
      {"smiles": "Cc1ccc(NC(=O)CSCC(=O)Nc2cccc(S(=O)(=O)N3CCCCCC3)c2)cc1", "Potency": "active: 13 µM"},
      {"smiles": "Cc1ccc(NC(=O)Cn2c(=O)n(Cc3ccc(C(=O)NCc4ccc5c(c4)OCO5)cc3)c(=O)c3ccccc32)cc1", "activity change, negative = inhibition": "inactive: -16.5%"},
      {"smiles": "CCn1c(SCC(O)c2ccccc2)nnc1-c1ccccc1", "note": "(centres undefined)", "Potency": "inconclusive: 20.6 µM [activator, partial curve]"},
      {"smiles": "CCNc1nc(SCC(=O)Nc2ccc(Cl)c(Cl)c2)nc(N2CCOCC2)n1", "Potency": "inconclusive: 20.6 µM [falling, single point]"},
      {"smiles": "CC(C)c1cc(C(=O)NCc2ccccc2)no1", "Potency": "inconclusive: 6.51 µM [activator, partial curve, poor fit]"},
      {"smiles": "C/C(=N/NC(=O)CSc1nc2ccccc2n1C)c1ccncc1", "Potency": "inconclusive: 4.61 µM [falling, full curve]"},
      {"smiles": "CC(CN1CCN(C)CC1)OC(=O)c1ccc(Cl)cc1", "note": "(centres undefined)", "Potency": "inconclusive: 29.1 µM [activator, single point]"},
      {"smiles": "NC(=O)CSc1nc2c(sc3ccccc32)c(=O)n1CCCN1CCOCC1", "activity change, negative = inhibition": "inactive: 21.6%"},
      {"smiles": "Cn1c(CN2CCCC2)nc2cc(NC(=O)c3ccc(Cl)cc3)ccc21", "Potency": "inconclusive: 29.1 µM [falling, single point]"},
      {"smiles": "C=CCn1c(SC(C)C(=O)c2c(N)n(C)c(=O)n(C)c2=O)nnc1-c1ccoc1C", "note": "(centres undefined)", "Potency": "inconclusive: 6.51 µM [activator, full curve, poor fit]"},
      {"smiles": "Cc1nnc(SCC(=O)Nc2nc(C(C)(C)C)cs2)s1", "Potency": "inconclusive: 5.8 µM [falling, full curve]"},
      {"smiles": "O=C(Nc1ccc2nc3n(c(=O)c2c1)CCCC3)c1cncc(Br)c1", "Potency": "inconclusive: 20.6 µM [falling, single point]"},
      {"smiles": "CC(C)NC(=O)CN1C(=O)c2cccnc2Sc2ccccc21", "Potency": "inconclusive: 18.4 µM [activator, single point]"},
      {"smiles": "Cc1ccc(CCNC(=O)CCS(=O)(=O)c2cc3c(cc2Cl)NC(=O)CO3)cc1", "activity change, negative = inhibition": "inactive: -8.54%"},
      {"smiles": "N#Cc1c(-c2ccco2)cc(-c2ccccc2)[nH]c1=O", "activity change, negative = inhibition": "inactive: -54.2%"},
      {"smiles": "FC(F)(F)c1cnc2c(c1)[nH]c(=S)n2-c1ccc(Cl)cc1", "Potency": "inconclusive: 23.1 µM [falling, partial curve]"},
      {"smiles": "COc1ccc(CNc2nc3c(c(=O)[nH]c(=O)n3C)n2Cc2ccccc2)cc1", "Potency": "inconclusive: 20.6 µM [falling, partial curve, poor fit]"},
      {"smiles": "Cc1cccnc1NC(=S)NC(=O)/C=C/c1ccccc1", "Potency": "inconclusive: 23.1 µM [activator, single point]"},
      {"smiles": "CCOC(=O)N1CCN(c2cc(=O)n(-c3ccc(Br)cc3)c(=O)[nH]2)CC1", "activity change, negative = inhibition": "inactive: 5.96%"},
      {"smiles": "O=C(OCc1cc(=O)n2nc(C3CC3)sc2n1)c1ccccc1Cl", "Potency": "inconclusive: 1.64 µM [falling, partial curve, poor fit]"},
      {"smiles": "COc1ccc(CNC(=O)C2=CC(c3cccc(OC)c3)=NS(=O)(=O)N2C)cc1", "Potency": "inconclusive: 23.1 µM [falling, partial curve]"},
      {"smiles": "C/C(=N\\Nc1nc2ccccc2s1)c1cccs1", "Potency": "inconclusive: 23.1 µM [activator, partial curve]"},
      {"smiles": "CCO[C@@H]1OC(C(=O)Nc2ccccc2)=C[C@H](c2ccc(C(F)(F)F)cc2)[C@H]1CCCO", "activity change, negative = inhibition": "inactive: -17.4%"},
      {"smiles": "COc1ccc(S(=O)(=O)Nc2ccc3ccccc3c2)cc1C", "Potency": "active: 20.6 µM"},
      {"smiles": "CC(=O)c1cccc(NC(=O)c2cc(C)nc3c2c(C)nn3-c2cccc(Cl)c2C)c1", "Potency": "inconclusive: 23.1 µM [falling, partial curve, poor fit]"},
      {"smiles": "O=c1c2cc(NC(=S)N3CCCCCC3)ccc2nc2n1CCCCC2", "Potency": "inconclusive: 29.1 µM [falling, single point]"},
      {"smiles": "CCc1nc2c(oc3ccccc32)c(=O)[nH]1", "Potency": "inconclusive: 14.6 µM [activator, partial curve, poor fit]"},
      {"smiles": "CCCCn1c(SCC(=O)Nc2cc(C)on2)nc2ccccc2c1=O", "activity change, negative = inhibition": "inactive: 10.9%"},
      {"smiles": "CN(c1ccc(O)cc1)c1nc(-c2ccccc2)cs1", "Potency": "inconclusive: 29.1 µM [activator, single point]"},
      {"smiles": "O=S(Cc1ccc(Br)cc1)Cc1nnc(SCc2c(F)cccc2Cl)n1-c1ccccc1", "note": "(centres undefined)", "Potency": "inconclusive: 25.9 µM [falling, single point]"},
      {"smiles": "O=C(Nc1nc2ccccc2c(=O)s1)c1ccc(F)cc1Cl", "Potency": "inconclusive: 7.31 µM [falling, partial curve]"},
      {"smiles": "COc1ccc(-n2c(N)c(C(=O)NCc3cccnc3)sc2=S)cc1", "Potency": "inconclusive: 1.84 µM [activator, partial curve, poor fit]"},
      {"smiles": "O=C(Nc1nc2ccsc2c(=O)s1)c1ccc(F)cc1", "Potency": "inconclusive: 0.651 µM [activator, partial curve, poor fit]"},
      {"smiles": "CC(=O)Nc1ccc(-c2cc(C(=O)O)c3c(-c4ccccc4)[nH]nc3n2)cc1", "activity change, negative = inhibition": "inactive: -13.7%"},
      {"smiles": "O=C(COc1ccccc1Cl)NCc1ccccc1", "Potency": "inconclusive: 23.1 µM [activator, single point]"},
      {"smiles": "O=C(Nc1ccc(C2CCCCC2)cc1)C1CCN(c2ncccn2)CC1", "Potency": "inconclusive: 0.58 µM [falling, full curve, poor fit]"},
      {"smiles": "CC[C@]1(O)CC2CN(CCc3c([nH]c4ccccc34)[C@@](C(=O)OC)(c3cc4c(cc3OC)N(C=O)[C@H]3[C@@](O)(C(=O)OC)[C@H](OC(C)=O)[C@]5(CC)C=CCN6CC[C@]43[C@@H]65)C2)C1", "note": "(some centres undefined)", "Potency": "inconclusive: 0.259 µM [activator, full curve]"},
      {"smiles": "COc1ccc(C(NC(=O)/C=C/c2ccco2)c2ccc(OC)cc2)cc1", "activity change, negative = inhibition": "inactive: 14%"},
      {"smiles": "NC(=O)c1sc2nc3c(c(-c4ccc(Cl)cc4)c2c1N)CCCC3", "Potency": "inconclusive: 23.1 µM [falling, single point]"}
    ]}
  ]
}
